This assay addresses Cx36-EGFP (UniProt O54851). Description: proximity labelling; BioID (BLITZ): HEK293T co-transfected with Cx36-EGFP, Cx36 and V5-dGBP-TurboID, 50 µM biotin for 3 h; streptavidin beads; mass spectrometry and western blot; control: cells with V5-TurboID-dGBP only. For orientation: A western blot detects proteins with antibodies after separation by electrophoresis.

By UniProt entry, the sequences of proteins in these tests, tags left out.
UniProt O54851: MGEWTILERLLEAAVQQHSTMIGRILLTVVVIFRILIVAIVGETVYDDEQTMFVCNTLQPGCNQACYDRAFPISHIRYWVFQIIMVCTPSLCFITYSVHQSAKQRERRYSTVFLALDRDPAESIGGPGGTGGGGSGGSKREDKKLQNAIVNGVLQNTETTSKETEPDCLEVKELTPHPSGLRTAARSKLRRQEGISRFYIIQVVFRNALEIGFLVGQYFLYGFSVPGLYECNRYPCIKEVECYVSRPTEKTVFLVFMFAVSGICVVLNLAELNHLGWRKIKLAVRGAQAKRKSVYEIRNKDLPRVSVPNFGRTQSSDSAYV
UniProt Q12923: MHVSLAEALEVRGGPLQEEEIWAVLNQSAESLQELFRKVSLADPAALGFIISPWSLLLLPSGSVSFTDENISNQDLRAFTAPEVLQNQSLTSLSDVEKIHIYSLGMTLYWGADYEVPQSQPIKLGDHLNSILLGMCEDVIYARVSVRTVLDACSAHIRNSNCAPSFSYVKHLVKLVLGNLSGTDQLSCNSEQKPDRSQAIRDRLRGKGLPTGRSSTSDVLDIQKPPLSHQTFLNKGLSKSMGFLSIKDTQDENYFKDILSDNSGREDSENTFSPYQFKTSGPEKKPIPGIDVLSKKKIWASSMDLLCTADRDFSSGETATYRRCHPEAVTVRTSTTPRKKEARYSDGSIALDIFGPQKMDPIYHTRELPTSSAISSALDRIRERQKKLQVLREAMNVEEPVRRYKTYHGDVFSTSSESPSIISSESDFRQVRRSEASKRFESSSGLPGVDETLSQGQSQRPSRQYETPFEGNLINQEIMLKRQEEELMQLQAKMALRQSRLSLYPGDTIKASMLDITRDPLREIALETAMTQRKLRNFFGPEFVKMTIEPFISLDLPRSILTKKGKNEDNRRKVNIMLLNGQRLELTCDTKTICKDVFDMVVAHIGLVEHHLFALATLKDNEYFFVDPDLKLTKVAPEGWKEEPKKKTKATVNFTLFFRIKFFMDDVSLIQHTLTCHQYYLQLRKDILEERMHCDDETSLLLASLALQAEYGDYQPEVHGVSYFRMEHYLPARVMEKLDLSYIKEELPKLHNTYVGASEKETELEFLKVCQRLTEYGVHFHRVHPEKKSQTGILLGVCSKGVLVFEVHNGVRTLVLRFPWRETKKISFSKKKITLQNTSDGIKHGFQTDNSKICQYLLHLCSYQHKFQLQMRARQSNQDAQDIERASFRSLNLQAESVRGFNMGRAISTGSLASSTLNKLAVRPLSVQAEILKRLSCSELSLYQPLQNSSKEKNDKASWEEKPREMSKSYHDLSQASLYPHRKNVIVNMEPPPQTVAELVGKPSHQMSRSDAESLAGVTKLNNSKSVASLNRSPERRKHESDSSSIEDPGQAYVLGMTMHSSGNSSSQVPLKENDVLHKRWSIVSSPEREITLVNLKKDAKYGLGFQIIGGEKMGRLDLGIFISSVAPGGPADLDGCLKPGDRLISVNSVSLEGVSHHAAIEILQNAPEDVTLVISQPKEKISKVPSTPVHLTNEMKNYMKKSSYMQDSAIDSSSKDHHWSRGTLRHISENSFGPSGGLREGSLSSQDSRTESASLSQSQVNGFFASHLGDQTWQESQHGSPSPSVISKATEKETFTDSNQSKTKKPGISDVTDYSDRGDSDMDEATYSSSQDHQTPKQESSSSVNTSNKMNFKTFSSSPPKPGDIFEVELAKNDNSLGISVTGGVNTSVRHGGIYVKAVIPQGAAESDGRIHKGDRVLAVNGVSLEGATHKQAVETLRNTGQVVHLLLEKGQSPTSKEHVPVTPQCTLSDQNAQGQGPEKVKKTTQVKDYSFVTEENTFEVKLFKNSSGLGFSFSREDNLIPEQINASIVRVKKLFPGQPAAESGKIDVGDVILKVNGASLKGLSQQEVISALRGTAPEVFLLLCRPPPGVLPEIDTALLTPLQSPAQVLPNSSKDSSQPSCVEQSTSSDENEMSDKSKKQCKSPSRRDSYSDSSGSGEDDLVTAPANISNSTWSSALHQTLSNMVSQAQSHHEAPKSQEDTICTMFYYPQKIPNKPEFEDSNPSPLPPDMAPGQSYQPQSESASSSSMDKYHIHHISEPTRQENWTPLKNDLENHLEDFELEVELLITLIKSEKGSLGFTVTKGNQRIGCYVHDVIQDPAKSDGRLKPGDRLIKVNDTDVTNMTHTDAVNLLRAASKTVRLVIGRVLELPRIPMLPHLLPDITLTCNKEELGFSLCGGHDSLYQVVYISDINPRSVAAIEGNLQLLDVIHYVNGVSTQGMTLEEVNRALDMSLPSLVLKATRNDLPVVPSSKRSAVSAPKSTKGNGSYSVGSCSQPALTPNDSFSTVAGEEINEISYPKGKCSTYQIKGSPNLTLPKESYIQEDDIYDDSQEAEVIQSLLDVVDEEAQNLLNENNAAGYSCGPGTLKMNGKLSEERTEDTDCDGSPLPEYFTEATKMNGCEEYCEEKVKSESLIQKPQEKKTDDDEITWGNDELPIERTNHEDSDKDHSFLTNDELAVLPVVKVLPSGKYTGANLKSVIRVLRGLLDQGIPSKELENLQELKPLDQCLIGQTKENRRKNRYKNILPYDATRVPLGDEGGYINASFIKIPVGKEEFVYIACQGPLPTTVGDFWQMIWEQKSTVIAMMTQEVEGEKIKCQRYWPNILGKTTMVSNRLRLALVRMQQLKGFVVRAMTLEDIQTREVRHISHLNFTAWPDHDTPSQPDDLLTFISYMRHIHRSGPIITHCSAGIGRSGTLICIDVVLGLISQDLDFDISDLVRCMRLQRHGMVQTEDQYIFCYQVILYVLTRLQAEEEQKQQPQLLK

No constants are given. Whether binding was seen depends on the method and setting. In cells and extracts the contact can be indirect. These calls come from enrichment with a bait or labelling near it, and not all partners need be listed.

Turning to “protein tyrosine phosphatase non-receptor type 13 (PTPN13), endogenous (from UniProt Q12923 1-2485)”, the binding entry is reported as “binds”.

B1: Sec24A, endogenous (protein, UniProt O95486 1-1093)
chain: MSQPGIPASGGAPASLQAQNGAALASGSPYTNGPVQNALLSSQESVSQGYNFQLPGSYPHPIPAKTLNPVSGQSNYGGSQGSGQTLNRPPVASNPVTPSLHSGPAPRMPLPASQNPATTPMPSSSFLPEANLPPPLNWQYNYPSTASQTNHCPRASSQPTVSGNTSLTTNHQYVSSGYPSLQNSFIKSGPSVPPLVNPPLPTTFQPGAPHGPPPAGGPPPVRALTPLTSSYRDVPQPLFNSAVNQEGITSNTNNGSMVVHSSYDEIEGGGLLATPQLTNKNPKMSRSVGYSYPSLPPGYQNTTPPGATGVPPSSLNYPSGPQAFTQTPLGANHLTTSMSGLSLQPEGLRVVNLLQERNMLPSTPLKPPVPNLHEDIQKLNCNPELFRCTLTSIPQTQALLNKAKLPLGLLLHPFKDLVQLPVVTSSTIVRCRSCRTYINPFVSFLDQRRWKCNLCYRVNDVPEEFLYNPLTRVYGEPHRRPEVQNATIEFMAPSEYMLRPPQPPVYLFVFDVSHNAVETGYLNSVCQSLLDNLDLLPGNTRTKIGFITFDSTIHFYGLQESLSQPQMLIVSDIEDVFIPMPENLLVNLNESKELVQDLLKTLPQMFTKTLETQSALGPALQAAFKLMSPTGGRMSVFQTQLPTLGVGALKPREEPNHRSSAKDIHMTPSTDFYKKLALDCSGQQVAVDLFLLSGQYSDLASLGCISRYSAGSVYYYPSYHHQHNPVQVQKLQKELQRYLTRKIGFEAVMRIRCTKGLSIHTFHGNFFVRSTDLLSLPNVNPDAGYAVQMSVEESLTDTQLVSFQSALLYTSSKGERRIRVHTLCLPVVSTLNDVFLGADVQAISGLLANMAVDRSMTASLSDARDALVNAVIDSLSAYRSSVLSNQQPGLMVPFSLRLFPLFVLALLKQKSFQTGTNARLDERIFAMCQVKNQPLVYLMLTTHPSLYRVDNLSDEGALNISDRTIPQPPILQLSVEKLSRDGAFLMDAGSVLMLWVGKNCTQNFLSQVLGVQNYASIPQPMTDLPELDTPESARIIAFISWLREQRPFFPILYVIRDESPMKANFLQNMIEDRTESALSYYEFLLHIQQQVNK
For B1, the binding result was “binds”.

B2: synergin gamma, endogenous (protein, UniProt Q9UMZ2 1-1314)
chain: MALRPGAGSGGGGAAGAGAGSAGGGGFMFPVAGGIRPPQAGLMPMQQQGFPMVSVMQPNMQGIMGMNYSSQMSQGPIAMQAGIPMGPMPAAGMPYLGQAPFLGMRPPGPQYTPDMQKQFAEEQQKRFEQQQKLLEEERKRRQFEEQKQKLRLLSSVKPKTGEKSRDDALEAIKGNLDGFSRDAKMHPTPASHPKKPGPSLEEKFLVSCDISTSGQEQIKLNTSEVGHKALGPGSSKKYPSLMASNGVAVDGCVSGTTTAEAENTSDQNLSIEESGVGVFPSQDPAQPRMPPWIYNESLVPDAYKKILETTMTPTGIDTAKLYPILMSSGLPRETLGQIWALANRTTPGKLTKEELYTVLAMIAVTQRGVPAMSPDALNQFPAAPIPTLSGFSMTLPTPVSQPTVIPSGPAGSMPLSLGQPVMGINLVGPVGGAAAQASSGFIPTYPANQVVKPEEDDFQDFQDASKSGSLDDSFSDFQELPASSKTSNSQHGNSAPSLLMPLPGTKALPSMDKYAVFKGIAADKSSENTVPPGDPGDKYSAFRELEQTAENKPLGESFAEFRSAGTDDGFTDFKTADSVSPLEPPTKDKTFPPSFPSGTIQQKQQTQVKNPLNLADLDMFSSVNCSSEKPLSFSAVFSTSKSVSTPQSTGSAATMTALAATKTSSLADDFGEFSLFGEYSGLAPVGEQDDFADFMAFSNSSISSEQKPDDKYDALKEEASPVPLTSNVGSTVKGGQNSTAASTKYDVFRQLSLEGSGLGVEDLKDNTPSGKSDDDFADFHSSKFSSINSDKSLGEKAVAFRHTKEDSASVKSLDLPSIGGSSVGKEDSEDALSVQFDMKLADVGGDLKHVMSDSSLDLPTVSGQHPPAADIEDLKYAAFGSYSSNFAVSTLTSYDWSDRDDATQGRKLSPFVLSAGSGSPSATSILQKKETSFGSSENITMTSLSKVTTFVSEDALPETTFPALASFKDTIPQTSEQKEYENRDYKDFTKQDLPTAERSQEATCPSPASSGASQETPNECSDDFGEFQSEKPKISKFDFLVATSQSKMKSSEEMIKSELATFDLSVQGSHKRSLSLGDKEISRSSPSPALEQPFRDRSNTLNEKPALPVIRDKYKDLTGEVEENERYAYEWQRCLGSALNVIKKANDTLNGISSSSVCTEVIQSAQGMEYLLGVVEVYRVTKRVELGIKATAVCSEKLQQLLKDIDKVWNNLIGFMSLATLTPDENSLDFSSCMLRPGIKNAQELACGVCLLNVDSRSRKEEKPAEEHPKKAFNSETDSFKLAYGGHQYHASCANFWINCVEPKPPGLVLPDLL
As for B2, the binding result was “binds”.

The record behind these values is article PMC11470877.
